Laboratory results reported in patent US8772229B2, “Methods for synthesis and uses of inhibitors of ghrelin O-acyltransferase as potential therapeutic agents for obesity and diabetes” (The Johns Hopkins University, priority 2008, dated 2014).
Part of at least one peptide drawing is inferred or uncertain, most often the ends.

Assays:
[1] = Insulin and glucose after glucose challenge in mice; format: in vivo
[2] = Weight gain and body composition (QMR) in mice on high fat diet; format: in vivo
human islet cells = experiment: Human islet insulin response to glucose (static incubation); format: cell-based; details: human islets, 5 μM, 24 h pre-treatment
IGF1 = experiment: Plasma IGF-1 in mice; format: in vivo; details: male and female mice
[3] = test system: Kato III human gastric cells; experiment: Acyl-ghrelin production in Kato III cells (cell lysate EIA); format: cell-based; details: vs. D4-Tat control
GOAT = biological target: T1, GOAT (Mus musculus, UniProt P0C7A3); experiment: Photo-crosslinking to solubilized FLAG-GOAT; format: binding; details: 100 uM competitor
T1 construct: made in house; host or cells: SF9 insect cells
T1 sequence (P0C7A3 1-435): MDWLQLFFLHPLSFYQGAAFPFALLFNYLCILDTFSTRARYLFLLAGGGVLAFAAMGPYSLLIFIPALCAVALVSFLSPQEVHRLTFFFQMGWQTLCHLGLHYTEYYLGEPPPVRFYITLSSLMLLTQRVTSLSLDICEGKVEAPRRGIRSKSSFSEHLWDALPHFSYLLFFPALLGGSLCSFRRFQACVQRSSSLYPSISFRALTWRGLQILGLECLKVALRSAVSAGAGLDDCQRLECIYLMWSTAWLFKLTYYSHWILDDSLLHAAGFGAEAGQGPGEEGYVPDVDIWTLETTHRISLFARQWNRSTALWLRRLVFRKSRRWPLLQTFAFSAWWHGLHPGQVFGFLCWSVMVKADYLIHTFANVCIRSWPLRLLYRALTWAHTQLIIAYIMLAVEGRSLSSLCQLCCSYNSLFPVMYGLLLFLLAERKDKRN

[4] = Weight gain in wild type and ghrelin knockout mice on MCT diet; format: in vivo; details: 40 mg/kg
[5] = test system: HEL human erythroleukemia cells; experiment: Acyl-ghrelin production in HEL cells (cell lysate EIA); format: cell-based
UCP2 mRNA = experiment: QRT-PCR of islets and gastric fundus from treated mice; format: in vivo
[6] = Glucose tolerance test in wild type and ghrelin knockout mice; format: in vivo; details: 40 mg/kg, IP-GTT 2.5 g/kg
serum acyl-ghrelin = experiment: Serum acyl- and desacyl-ghrelin in mice after IP dose; format: in vivo
[7] = test system: AGS human gastric epithelial cells; experiment: Acyl-ghrelin production in AGS cells (cell lysate EIA); format: cell-based; details: vs. D4-Tat control
[8] = biological target: T2, ghrelin O-acyltransferase (GOAT) (Mus musculus, UniProt P0C7A3); experiment: GOAT acyltransferase assay, radioactive, recombinant microsomal GOAT; format: biochemical; details: 100 nM, within 5 min
T2 construct: made in house; host or cells: HEK293T GnTI(-) cells, microsomal fraction
T2 sequence (P0C7A3 1-435): T1 sequence (P0C7A3 1-435)

[9] = 29 mg/kg, intraperitoneal glucose challenge of 2.5 g/kg
[10] = read-out: IC50, reduction of acyl-ghrelin levels
[11] = islets of treated mice, vs. D4-Tat treated mice

In the case of `CCCCCCC(SCCNC(=O)CCNC(=O)[C@H](O)C(C)(C)COP(=O)(O)OP(=O)(O)OC[C@H]1O[C@@H](n2cnc3c(N)ncnc32)[C@H](O)[C@@H]1OP(=O)(O)O)C(=O)NC[C@H](NC(=O)[C@H](CO)NC(=O)CN)C(=O)N[C@@H](Cc1ccccc1)C(=O)N[C@@H](CC(C)C)C(=O)N[C@@H](CO)C(=O)N1CCC[C@H]1C(=O)N[C@@H](CCC(=O)O)C(=O)N[C@@H](Cc1c[nH]cn1)C(=O)N[C@@H](CCC(N)=O)C(=O)NCCCCCC(=O)N[C@@H](Cc1ccc(O)cc1)C(=O)NCC(=O)N[C@@H](CCCNC(=N)N)C(=O)N[C@@H](CCCCN)C(=O)N[C@@H](CCCCN)C(=O)N[C@@H](CCCNC(=N)N)C(=O)N[C@@H](CCCNC(=N)N)C(=O)N[C@@H](CCC(N)=O)C(=O)N[C@@H](CCCNC(=N)N)C(=O)N[C@@H](CCCNC(=N)N)C(=O)N[C@@H](CCCNC(=N)N)C(=O)O` (some centres unmarked) [GO-CoA-Tat], the blood glucose ([1]; 15 mg/kg) is reported as “statistically significant decrease in blood glucose”, the insulin response ([1]; 15 mg/kg 24 h prior to oral glucose challenge (1 g/kg)) is reported as “statistically significant increase in insulin response” and the glucose [1, 9] is reported as “statistically significant reduction in glucose”. The insulin response [1, 9] was “even more substantial”, the “relative reduction in fat mass” value ([2]; 29 mg/kg IP daily, QMR, persisted after day 6, relative to controls) was ~5% and the lean mass ([2]; 29 mg/kg IP daily, QMR, relative to controls) was “but not lean mass”. For the same molecule, the “food and water intake or fecal and urine output” value ([2]; 29 mg/kg IP daily, metabolic cages, vs. D4-Tat) was “no statistically significant differences”, the body weight ([2]; 29 mg/kg IP every 24 h, 12 d, high fat diet, vs. D4-Tat) was “statistically significant reduced weight” and the percent body fat ([2]; 29 mg/kg, vs. D4-Tat) was “statistically significant decrease in percent body fat”. For the same molecule, the “insulin response to a glucose challenge” value (human islet cells) was “statistically significant increase in insulin response”, the “blood IGF1 levels” value (IGF1) was “suppresses blood IGF1 levels” and the desacyl-ghrelin levels [3] was “but not desacyl-ghrelin, were significantly reduced”. The IC50 [3, 10] was 1000 to 2000 nM, the “block of analog crosslinking to GOAT” value (GOAT) was “could be blocked” and the weight ([4]; ghrelin knockout mice) was “but not genetically altered (ghrelin knockout) mice”. The weight ([4]; wild type mice) was “affects the weight of wild type”, the desacyl-ghrelin levels ([5]; HEL cells, vs. D4-Tat control) was “but not desacyl-ghrelin, were significantly reduced” and the IC50 ([5]; HEL cells, vs. D4-Tat control, read-out: IC50, reduction of acyl-ghrelin levels) was 1000 to 2000 nM. For the same molecule, the “exposure time for maximal inhibition of acyl-ghrelin” value ([5]; cell culture, sentence covers the cell lines tested) was 24 h, the “UCP2 mRNA” value (UCP2 mRNA; gastric fundus of treated mice) was “non-statistically significant effects” and the “mRNA levels of insulin, ghrelin, or GHSR” value (UCP2 mRNA; [11]) was “no change”. The “reduction in UCP2 mRNA levels” value (UCP2 mRNA; [11]) was 20 fold, the glucose levels ([6]; ghrelin knockout mice) was “but not genetically altered (ghrelin knockout) mice” and the glucose levels ([6]; wild type mice) was “affects the glucose levels of wild type”. For the same molecule, the “maximum inhibition of serum acyl-ghrelin” value (serum acyl-ghrelin; 29 mg/kg IP, 24 h, fasted mice) was 70%, the “serum levels of des-acyl ghrelin” value (serum acyl-ghrelin; 15 and 29 mg/kg IP) was “no significant effect” and the desacyl-ghrelin levels [7] was “but not desacyl-ghrelin, were significantly reduced”. For the same molecule, the IC50 [7, 10] was 1000 to 2000 nM and the GOAT inhibition [8] was “Complete”.
